Results taken from patent US20030166034A1, “P70-S6K or related kinase with constitutive activity” (priority 1996, published 2003).
At least one compound was matched to its structure with a doubt left.

How the values were obtained:
[1] = test system: p70^S6K phosphorylation sites T389, S404, T229; assay: Two-dimensional tryptic phosphopeptide mapping of p70^S6K during rapamycin-induced inactivation; assay type: cell-based
p70^S6K = p70^S6K kinase activity (M5 immunoprecipitate) in serum-stimulated Swiss 3T3 cells at times following rapamycin treatment; assay type: cell-based
[2] = 5 nM rapamycin, serum-stimulated Swiss 3T3 cells

SMILES: CO[C@H]1C[C@@H]2CC[C@@H](C)[C@@](O)(O2)C(=O)C(=O)N2CCCC[C@H]2C(=O)O[C@H]([C@H](C)C[C@@H]2CC[C@@H](O)[C@H](OC)C2)CC(=O)[C@H](C)/C=C(\C)[C@@H](O)[C@@H](OC)C(=O)[C@H](C)C[C@H](C)/C=C/C=C/C=C/1C [rapamycin]
- T389 phosphorylation of p70^S6K ([1]; after 15 min of rapamycin treatment): barely detectable
- T389 phosphorylation of p70^S6K ([1]; after 30 min of rapamycin treatment): no longer visible
- loss of phosphate from T229 compared with loss of kinase activity ([1]; selected time points during rapamycin-induced inactivation): kinase activity decreases more rapidly than phosphate is lost from T229
- T389 phosphorylation of p70^S6K ([1]; within 4 min of rapamycin treatment): strongly reduced
- time after rapamycin addition at which 50% of p70^S6K activity is abolished (p70^S6K; [2]): 4 to 5 min
- time after rapamycin addition for kinase activity to reach basal levels (p70^S6K; [2]): 15 to 30 min
- p70^S6K activity (p70^S6K; 30 min post rapamycin treatment, Swiss 3T3 cells): no p70^S6K activity can be detected
